Experimental data from US20110178117A1 (Merck Sharp & Dohme Corp., priority 2008, published 2011).
pEC50: −log10 of the molar value. Some entries share one result that the patent states for a list of compounds.

Chains of the proteins cited; added tags and fusions are not shown. Residues count along the entry.
UniProt Q14416, 19-872: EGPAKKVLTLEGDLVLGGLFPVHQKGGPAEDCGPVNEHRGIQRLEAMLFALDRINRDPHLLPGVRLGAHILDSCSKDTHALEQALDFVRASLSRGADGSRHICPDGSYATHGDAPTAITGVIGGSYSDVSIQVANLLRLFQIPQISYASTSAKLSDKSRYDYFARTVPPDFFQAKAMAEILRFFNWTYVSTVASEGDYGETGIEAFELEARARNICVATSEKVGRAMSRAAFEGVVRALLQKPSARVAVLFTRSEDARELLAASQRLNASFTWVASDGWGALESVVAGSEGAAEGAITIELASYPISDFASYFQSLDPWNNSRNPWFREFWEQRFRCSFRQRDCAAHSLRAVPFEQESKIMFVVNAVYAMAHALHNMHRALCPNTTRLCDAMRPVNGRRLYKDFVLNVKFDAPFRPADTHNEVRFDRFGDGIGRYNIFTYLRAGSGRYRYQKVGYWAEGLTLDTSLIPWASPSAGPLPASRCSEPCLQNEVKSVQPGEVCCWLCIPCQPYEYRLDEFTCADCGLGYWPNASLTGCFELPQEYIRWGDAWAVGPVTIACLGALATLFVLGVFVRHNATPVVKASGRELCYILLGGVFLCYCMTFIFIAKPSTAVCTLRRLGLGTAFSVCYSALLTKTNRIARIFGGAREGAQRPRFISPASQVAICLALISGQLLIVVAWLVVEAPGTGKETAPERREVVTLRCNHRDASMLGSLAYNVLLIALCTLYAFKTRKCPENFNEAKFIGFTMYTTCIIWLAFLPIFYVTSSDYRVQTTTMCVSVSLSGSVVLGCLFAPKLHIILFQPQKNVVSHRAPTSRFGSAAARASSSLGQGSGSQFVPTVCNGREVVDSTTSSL

Target: T1, recombinant human mGluR2 (Homo sapiens, UniProt Q14416)
T1 construct: expressed in transfected cells
Test: FLIPR Ca2+ mobilization assay, potentiation of glutamate response
Format: cell-based
Settings: for potentiation of glutamate response: in the presence of an EC20 concentration of glutamate (900 nM); for pEC50: potentiation, EC20 glutamate (900 nM), read-out: EC50 in potentiating the mGluR2 receptor in the FLIPR assay
Description: The compounds of the present invention may be tested in a fluorescence laser imaging plate reader (FLIPR) based assay. This assay is a common functional assay to monitor Ca^2+ mobilization in whole cells expressing recombinant receptor coupled with a promiscuous G-protein. CHO dhfr-cells stably expressing recombinant human mGluR2 and Gα16 loaded with Fluo-4 AM (Invitrogen, Carlsbad Calif.) are treated with dose responses of compounds and the Ca^2+ response is monitored on a FLIPR384 (Molecular Devices, Sunnydale Calif.) for agonist activity. The potentiation response is monitored after a subsequent addition of an EC20 concentration of glutamate (900 nM). The maximum calcium response at each concentration of compound for agonist or potentiation are plotted as dose responses and the curves are fitted with a four parameters logistic equation giving EC50 and Hill coefficient using the iterative non linear curve fitting software program.

## COCCCCC1Cn2c(nc3ccccc32)O1 (stereo not shown) [Example 1-21, 2-(4-methoxybutyl)-2,3-dihydrobenzo[d]oxazolo[3,2-a]imidazole]
  potentiation of glutamate response: ≥ 1.8 fold
  pEC50: > 5.00

## CCCCCCC1Cn2c(nc3ccncc32)O1 (stereo not shown) [Example 2-6, 2-hexyl-2,3-dihydro[1,3]oxazolo[2′,3:2,3]imidazo[4,5-c]pyridine]
  potentiation of glutamate response: ≥ 1.8 fold
  pEC50: > 5.00

## FCCCCCCC1Cn2c(nc3ccccc32)O1 (stereo not shown) [Example 1-23, 2-(6-fluorohexyl)-2,3-dihydrobenzo[d]oxazolo[3,2-a]imidazole]
  potentiation of glutamate response: ≥ 1.8 fold
  pEC50: > 5.00

## CCCCCCC1Cn2c(nc3cnccc32)O1 (stereo not shown) [Example 2-5, 2-hexyl-2,3-dihydro[1,3]oxazolo[3′,2′:1,2]imidazo[4,5-c]pyridine]
  potentiation of glutamate response: ≥ 1.8 fold
  pEC50: > 5.00

## CCCCCC[C@@H]1Cn2c(nc3ccccc32)O1 [Example 1-5, (2R)-2-hexyl-2,3-dihydro[1,3]oxazolo[3,2-a]benzimidazole]
  potentiation of glutamate response: ≥ 1.8 fold
  pEC50: > 5.00
